Source: US20150078996A1 (Merck Sharp & Dohme, published 2015)
No constants are given. Whether binding was seen depends on the method and setting. Some entries that bind do so weakly or less than the wild type.

The chains behind the UniProt entries cited, without tags or fusion partners. Where a name states a change or a piece, a line headed by the entry shows the natural chain unless it says otherwise. Residues count along the entry.
UniProt P08069: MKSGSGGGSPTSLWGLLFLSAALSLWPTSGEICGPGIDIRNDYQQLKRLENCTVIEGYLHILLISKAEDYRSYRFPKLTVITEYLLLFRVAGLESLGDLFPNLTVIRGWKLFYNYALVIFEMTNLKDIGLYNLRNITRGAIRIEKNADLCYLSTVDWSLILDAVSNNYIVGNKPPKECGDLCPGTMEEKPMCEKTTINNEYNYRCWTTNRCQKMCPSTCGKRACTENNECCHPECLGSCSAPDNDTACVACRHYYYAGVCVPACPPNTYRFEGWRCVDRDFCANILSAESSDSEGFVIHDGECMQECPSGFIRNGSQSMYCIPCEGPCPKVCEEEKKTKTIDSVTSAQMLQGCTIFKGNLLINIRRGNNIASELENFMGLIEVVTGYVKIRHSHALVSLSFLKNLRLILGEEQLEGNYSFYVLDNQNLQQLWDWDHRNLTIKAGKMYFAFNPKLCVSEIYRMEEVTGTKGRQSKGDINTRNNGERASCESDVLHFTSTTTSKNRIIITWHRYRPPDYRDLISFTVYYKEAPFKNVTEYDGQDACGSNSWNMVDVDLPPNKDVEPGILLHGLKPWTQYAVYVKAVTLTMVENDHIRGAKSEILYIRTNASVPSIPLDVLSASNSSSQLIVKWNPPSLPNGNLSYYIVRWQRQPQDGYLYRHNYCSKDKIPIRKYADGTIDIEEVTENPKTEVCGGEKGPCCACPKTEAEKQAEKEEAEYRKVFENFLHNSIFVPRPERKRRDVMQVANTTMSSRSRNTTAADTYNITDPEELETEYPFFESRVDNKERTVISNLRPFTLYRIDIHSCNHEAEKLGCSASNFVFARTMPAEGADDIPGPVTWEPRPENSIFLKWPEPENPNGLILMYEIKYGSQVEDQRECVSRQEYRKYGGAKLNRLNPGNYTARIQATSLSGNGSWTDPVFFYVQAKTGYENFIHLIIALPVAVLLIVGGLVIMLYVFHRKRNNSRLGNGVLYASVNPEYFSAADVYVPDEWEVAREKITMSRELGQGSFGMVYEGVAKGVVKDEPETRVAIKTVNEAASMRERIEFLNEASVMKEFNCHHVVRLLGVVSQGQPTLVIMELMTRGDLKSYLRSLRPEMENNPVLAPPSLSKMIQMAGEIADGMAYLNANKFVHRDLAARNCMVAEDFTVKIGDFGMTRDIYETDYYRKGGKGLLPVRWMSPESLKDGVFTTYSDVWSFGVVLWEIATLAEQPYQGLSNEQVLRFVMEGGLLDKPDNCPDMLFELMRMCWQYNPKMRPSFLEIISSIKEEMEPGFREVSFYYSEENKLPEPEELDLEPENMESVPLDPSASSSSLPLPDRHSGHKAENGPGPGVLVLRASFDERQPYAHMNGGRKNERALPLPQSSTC
IGF-IR expressed on baculovirus-infected Sf9 insect cells: residues 31-1367 of P08069
human recombinant IGF-IR (immunogen and ELISA antigen): residues 31-932 of P08069

Key:
[1] = biological target: human recombinant IGF-IR (immunogen and ELISA antigen) (human) (UniProt P08069); assay: ELISA on plates coated with human recombinant IGF-IR
[2] = biological target: IGF-IR expressed on baculovirus-infected Sf9 insect cells (UniProt P08069); assay: flow cytometry on Sf9 cells expressing IGF-IR

B1: mouse monoclonal antibody 12B1 (anti-IGF-1R) (antibody, mouse IgG1, V domains shown)
VH: QVQLKESGPDLVAPSQSLSITCTVSGFSLTNYGVHWVRQFPGKGLEWLGVIWAGGNTNYNSALMSRLTISKDNSKSQVFLKMNSLQTDDTAVYYCAREYGSTYVAWFAHWGQGTLVTVSS
VL: ENVLTQSPAIMSASPGEKVTMTCGASSSVSSSFLHWYQQKSGASPKLWIYSTSNLASGVPTRFSGSGSGTSYSLTISSVEAEDAATYYCQQYSGYPLTFGAGTKLELK
notes: also called MAb 12B1; clone 12B1
[1]
  binding: binds
[2]
  binding: binds
